Reference: the supplement of paper PMC12067093, “Discovery and optimisation of a covalent ligand for TRIM25 and its application to targeted protein ubiquitination” (Chemical Science, 2025)
This is one part of the list.

Compound: Cc1cc(ccc1-c1ccccc1)C(=O)N1CCCN(CC1)C(=O)CCl [compound 10]
Assay: probe-labelled cysteine peptide fold change vs DMSO (competition) (log2 fold change); higher = less target engagement (more negative = stronger competition)
Details: THP-1, incubation time: 4 h
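Also: competitive profiling in live THP-1 cells: cysteine peptides tagged with an iodoacetamide desthiobiotin (IA-DTB) probe, intensity after compound treatment relative to DMSO-treated cells.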

PSMA5_P28066_76_IVEIDAHIGCAMSGLIADAK (UniProt P28066)
probe-labelled cysteine peptide fold change (10 µM): 0.0618 | probe-labelled cysteine peptide fold change (50 µM): -0.148

PTAR1_Q7Z6K3_314_INLPHLLEEEVEFSTDLIDSYPGHETLWCHR (UniProt Q7Z6K3)
probe-labelled cysteine peptide fold change (10 µM): -0.377 | probe-labelled cysteine peptide fold change (50 µM): -0.0279

PSMB10_P40306_83_IYCCGAGVAADAEMTTR (UniProt P40306)
probe-labelled cysteine peptide fold change (10 µM): -0.284 | probe-labelled cysteine peptide fold change (50 µM): -0.179

PSMD10_O75832_48_TALHWACSAGHTEIVEFLLQLGVPVNDK (UniProt O75832)
probe-labelled cysteine peptide fold change (10 µM): 0.346 | probe-labelled cysteine peptide fold change (50 µM): 0.374

PTPMT1_Q8WUK0_127+132_YQSLGQCVYVHCK (UniProt Q8WUK0)
probe-labelled cysteine peptide fold change (10 µM): 0.0587 | probe-labelled cysteine peptide fold change (50 µM): -0.0194

PTBP1_P26599_251_LSLDGQNIYNACCTLR (UniProt P26599)
probe-labelled cysteine peptide fold change (10 µM): -0.353 | probe-labelled cysteine peptide fold change (50 µM): -0.451

PTRH1_Q86Y79_72_DRHCAADLALAPLGDAQLVLLRPR (UniProt Q86Y79)
probe-labelled cysteine peptide fold change (10 µM): -0.0227 | probe-labelled cysteine peptide fold change (50 µM): 0.0387

PSMD11_O00231_289_CVAQASK (UniProt O00231)
probe-labelled cysteine peptide fold change (10 µM): -0.106 | probe-labelled cysteine peptide fold change (50 µM): 0.0595

PTBP3_O95758_68_IPCDVTEAEIISLGLPFGK (UniProt O95758)
probe-labelled cysteine peptide fold change (10 µM): -0.0285 | probe-labelled cysteine peptide fold change (50 µM): -0.154

PTK2B_Q14289_89_LAECYGLR (UniProt Q14289)
probe-labelled cysteine peptide fold change (10 µM): 0.064 | probe-labelled cysteine peptide fold change (50 µM): 0.0132

PTGFRN_Q9P2B2_571_PFFAAGNTFEMTCK (UniProt Q9P2B2)
probe-labelled cysteine peptide fold change (10 µM): 0.0192 | probe-labelled cysteine peptide fold change (50 µM): -0.0142

PTPN11_Q06124_463_QESIMDAGPVVVHCSAGIGR (UniProt Q06124)
probe-labelled cysteine peptide fold change (10 µM): 0.47 | probe-labelled cysteine peptide fold change (50 µM): 0.263

PTPN7_P35236_291_LVAEVEESPETAAHPGPIVVHCSAGIGR (UniProt P35236)
probe-labelled cysteine peptide fold change (10 µM): 0.109 | probe-labelled cysteine peptide fold change (50 µM): -0.295

PSMB7_Q99436_87_IHFISPNIYCCGAGTAADTDMTTQLISSNLELHSLSTGR (UniProt Q99436)
probe-labelled cysteine peptide fold change (10 µM): 0.134 | probe-labelled cysteine peptide fold change (50 µM): 0.0984

PSMB1_P20618_89_TVIGCSGFHGDCLTLTK (UniProt P20618)
probe-labelled cysteine peptide fold change (10 µM): 0.139 | probe-labelled cysteine peptide fold change (50 µM): -0.0465

PTPN1_P18031_32_SGSWAAIYQDIRHEASDFPCR (UniProt P18031)
probe-labelled cysteine peptide fold change (10 µM): -0.0724 | probe-labelled cysteine peptide fold change (50 µM): -0.0258

PSMA6_P60900_47_DCAVIVTQK (UniProt P60900)
probe-labelled cysteine peptide fold change (10 µM): 0.109 | probe-labelled cysteine peptide fold change (50 µM): 0.0462

PUM2_Q8TB72_887_GQVFVLSTHPYGCR (UniProt Q8TB72)
probe-labelled cysteine peptide fold change (10 µM): 0.0852 | probe-labelled cysteine peptide fold change (50 µM): -0.371

PSMD11_O00231_202_TTANAIYCPPK (UniProt O00231)
probe-labelled cysteine peptide fold change (10 µM): 0.077 | probe-labelled cysteine peptide fold change (50 µM): 0.248

PTK2B_Q14289_562_NILVASPECVK (UniProt Q14289)
probe-labelled cysteine peptide fold change (10 µM): -0.0262 | probe-labelled cysteine peptide fold change (50 µM): 0.132

PSMD11_O00231_257_YMLLCK (UniProt O00231)
probe-labelled cysteine peptide fold change (10 µM): 0.248 | probe-labelled cysteine peptide fold change (50 µM): 0.241

PSTPIP2_Q9H939_65_KKPCGQSEINTLK (UniProt Q9H939)
probe-labelled cysteine peptide fold change (10 µM): -0.16 | probe-labelled cysteine peptide fold change (50 µM): -0.225

PTPN6_P29350_382_AYGPYSVTNCGEHDTTEYK (UniProt P29350)
probe-labelled cysteine peptide fold change (10 µM): 0.00651 | probe-labelled cysteine peptide fold change (50 µM): 0.0547

PTPN23_Q9H3S7_116_YEQACILYNLGALHSMLGAMDK (UniProt Q9H3S7)
probe-labelled cysteine peptide fold change (10 µM): 0.00122 | probe-labelled cysteine peptide fold change (50 µM): 0.181

PSMA7_O14818_91_VECQSHR (UniProt O14818)
probe-labelled cysteine peptide fold change (10 µM): -0.0884 | probe-labelled cysteine peptide fold change (50 µM): 0.537

PSMB2_P49721_91_RNLADCLR (UniProt P49721)
probe-labelled cysteine peptide fold change (10 µM): -0.0547 | probe-labelled cysteine peptide fold change (50 µM): -0.266

PTPRC_P08575_311_FQLHDCTQVEK (UniProt P08575)
probe-labelled cysteine peptide fold change (10 µM): -0.532 | probe-labelled cysteine peptide fold change (50 µM): 0.0351

PSMA5_P28066_47_LGSTAIGIQTSEGVCLAVEK (UniProt P28066)
probe-labelled cysteine peptide fold change (10 µM): 0.229 | probe-labelled cysteine peptide fold change (50 µM): 0.149

PSMC3IP_Q9P2W1_107_VQSLQQSCR (UniProt Q9P2W1)
probe-labelled cysteine peptide fold change (10 µM): 0.238 | probe-labelled cysteine peptide fold change (50 µM): 0.229

PSMB5_P28074_161_GMGLSMGTMICGWDK (UniProt P28074)
probe-labelled cysteine peptide fold change (10 µM): -0.0589 | probe-labelled cysteine peptide fold change (50 µM): 0.252

PTER_Q96BW5_196_VLQATAHAQAQLGCPVIIHPGR (UniProt Q96BW5)
probe-labelled cysteine peptide fold change (10 µM): 0.2 | probe-labelled cysteine peptide fold change (50 µM): 0.329

PUM3_Q15397_371_VAMHCLWHGTPK (UniProt Q15397)
probe-labelled cysteine peptide fold change (10 µM): 0.197 | probe-labelled cysteine peptide fold change (50 µM): 0.0431

PTK2B_Q14289_310_CLPLEEGQAVLQLGIEGAPQALSIK (UniProt Q14289)
probe-labelled cysteine peptide fold change (10 µM): 0.223 | probe-labelled cysteine peptide fold change (50 µM): -0.0202

PSMA6_P60900_47_GKDCAVIVTQK (UniProt P60900)
probe-labelled cysteine peptide fold change (10 µM): -0.0263 | probe-labelled cysteine peptide fold change (50 µM): -0.757

PTPA_Q15257_199+200_IDYGTGHEAAFAAFLCCLCK (UniProt Q15257)
probe-labelled cysteine peptide fold change (10 µM): -0.00482 | probe-labelled cysteine peptide fold change (50 µM): -0.0603

PSMD1_Q99460_112_QCVENADLPEGEK (UniProt Q99460)
probe-labelled cysteine peptide fold change (10 µM): -0.196 | probe-labelled cysteine peptide fold change (50 µM): 0.0968

PTPN11_Q06124_259_QGFWEEFETLQQQECK (UniProt Q06124)
probe-labelled cysteine peptide fold change (10 µM): -0.0531 | probe-labelled cysteine peptide fold change (50 µM): -0.212

PSMA6_P60900_115_YGYEIPVDMLCKR (UniProt P60900)
probe-labelled cysteine peptide fold change (10 µM): -0.269 | probe-labelled cysteine peptide fold change (50 µM): -0.721

PTK2B_Q14289_395_SHLSESCSIESDIYAEIPDETLR (UniProt Q14289)
probe-labelled cysteine peptide fold change (10 µM): -0.213 | probe-labelled cysteine peptide fold change (50 µM): -0.461

PUF60_Q9UHX1_487_DIDDDLEGEVTEECGK (UniProt Q9UHX1)
probe-labelled cysteine peptide fold change (10 µM): -0.0568 | probe-labelled cysteine peptide fold change (50 µM): 0.0309

PSMD3_O43242_210_CYYYHAR (UniProt O43242)
probe-labelled cysteine peptide fold change (10 µM): 0.00961 | probe-labelled cysteine peptide fold change (50 µM): 0.0335

PSMB1_P20618_82_TVIGCSGFHGDCLTLTK (UniProt P20618)
probe-labelled cysteine peptide fold change (10 µM): 0.118 | probe-labelled cysteine peptide fold change (50 µM): 0.113
